Consider two molecules from publication PMC5187494, “Identification of Febuxostat as a New Strong ABCG2 Inhibitor: Potential Applications and Risks in Clinical Situations” (Frontiers in Pharmacology, 2016).

The target in data set [1] is T1, human ABCG2 (Homo sapiens, UniProt Q9UNQ0).
T1 sequence (Q9UNQ0 1-655): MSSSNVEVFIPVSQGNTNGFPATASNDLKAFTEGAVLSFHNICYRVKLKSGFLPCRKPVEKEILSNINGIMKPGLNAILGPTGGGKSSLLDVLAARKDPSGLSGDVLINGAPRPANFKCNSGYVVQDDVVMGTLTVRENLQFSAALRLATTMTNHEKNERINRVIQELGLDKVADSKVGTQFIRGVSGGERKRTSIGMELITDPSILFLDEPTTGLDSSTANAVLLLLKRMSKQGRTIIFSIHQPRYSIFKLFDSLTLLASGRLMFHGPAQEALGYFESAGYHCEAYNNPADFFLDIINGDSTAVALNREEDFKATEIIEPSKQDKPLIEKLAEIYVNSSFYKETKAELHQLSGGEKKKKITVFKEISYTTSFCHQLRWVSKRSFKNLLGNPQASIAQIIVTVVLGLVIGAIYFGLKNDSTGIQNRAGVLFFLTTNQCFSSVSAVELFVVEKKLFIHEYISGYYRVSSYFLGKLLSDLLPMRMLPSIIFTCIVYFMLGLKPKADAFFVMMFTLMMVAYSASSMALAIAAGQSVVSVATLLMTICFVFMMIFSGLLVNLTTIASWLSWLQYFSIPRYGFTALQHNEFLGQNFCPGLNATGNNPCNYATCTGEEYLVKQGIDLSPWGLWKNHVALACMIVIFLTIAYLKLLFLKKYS
As to the kind of experiment: In vitro urate transport assay with ABCG2-expressing plasma membrane vesicles.

On the set-up of data set [2]: method as in general information provided by pharmaceutical industries. The settings on record: human plasma, reported Cmax; ref general information provided by pharmaceutical industries; cited from earlier work.
Details of data set [3]: method as in general information provided by pharmaceutical industries. The settings on record: ref general information provided by pharmaceutical industries; cited from earlier work.
Data set [4] is described as follows: Maximum (unbound) drug concentration in human plasma. The class given is in vivo. The settings on record: fu multiplied by reported Cmax.

For `CC(C)c1c(C(=O)Nc2ccccc2)c(-c2ccccc2)c(-c2ccc(F)cc2)n1CC[C@@H](O)C[C@@H](O)CC(=O)O` [Atorvastatin, atorvastatin], the IC50 (as a rule, the concentration that inhibits the measured activity by half) in data set [1] is 4.3 µM. In addition, the Cmax (in general, the highest concentration seen after dosing) in data set [2] was 2.2 nM. Also, the “fu (unbound fraction in human plasma)” value in data set [3] is reported as 4.4 × 10^-2. The “fuCmax (maximum unbound concentration in human plasma)” value in data set [4] came to 9.6e-05 µM.
As to `NS(=O)(=O)c1cc(C(=O)O)c(NCc2ccco2)cc1Cl` [Furosemide, furosemide], the Cmax in data set [2] is 2700 nM. In addition, in data set [3], the “fu (unbound fraction in human plasma)” value is 9.0 × 10^-2. The “fuCmax (maximum unbound concentration in human plasma)” value in data set [4] is 0.24 µM.
